# Test results from PubChem BioAssay AID2417 (National Center for Advancing Translational Sciences (NCATS), 2010).
# About 4,300 (3.1%) of roughly 140,000 compounds were called active. The shares of active, inactive and inconclusive entries below differ from those in the screen.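 How the source made its calls: active means readout at or below -70, meaning at least 70% loss of cells showing the perinucleolar compartment, a nuclear body marking cancer cells; inconclusive means readout between -30 and a set limit; inactive means the rest.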
# Test: High Content Assay for Compounds that inhibit the Assembly of the Perinucleolar Compartment;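 further: plate controls were DMSO wells for no effect and camptothecin positive control wells for full effect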
# Conditions: PC3M PTB-GFP, PNC prevalence imaging, 16 h; at 10 µM; active compounds read low
# Outline: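 PC3M cells stably expressing PTB-GFP, 750–1000 cells/well, treated 16 h at 37 °C with compound (23 nl of library stock), in duplicate. After paraformaldehyde fixation and Hoechst stain, imaged at 20x; PNC prevalence scored by image analysis.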
row,SMILES,"activity change (PNC), negative = inhibition"
1,Cc1cc(C)c(C#N)c(SCS(=O)c2ccc(C(C)(C)C)cc2)n1 (stereo not given),inconclusive: -31%
2,Cc1cc(C)c2c(n1)nn1c(NCCOCCO)cc(C)nc21,inconclusive: -66.7%
3,CCC(C)NC(=O)[C@H](CSCc1ccccc1)N1Cc2ccccc2C1=O (stereo not given in full),active: -82.3%
4,N#Cc1cnn(Cc2ccc(Cl)cc2)c1N,inconclusive: -67.3%
5,CC1=NNC(=O)C1CCC(=O)N/N=C/C(Br)=C/c1ccccc1 (stereo not given),active: -115%
6,COc1cc(NC(=O)CSc2nc(C)cs2)cc(OC)c1,inconclusive: -32.1%
7,CCOC(=O)C1=C(C)NC(=O)NC1c1cc(Br)c(O)c(OC)c1 (stereo not given),inconclusive: -45.4%
8,CS(=O)(=O)c1ccc2c(c1)SC1=NC(=O)/C(=C/c3ccco3)C(=N)N12,inconclusive: -35.4%
9,COc1cc(C2(O)CCCCC2C)cc(OC)c1OC (stereo not given),inconclusive: -50.6%
10,CCc1nnc(NC(=O)CSc2nnc(CSc3nc(C)cc(C)n3)o2)s1,inconclusive: -38%
11,CCOc1cc(C)cc2oc(=O)cc(-c3ccccc3)c12,inactive: -23.1%
12,COc1cccc(C2/C(=C(/O)c3ccncc3)C(=O)C(=O)N2CCCN(C)C)c1 (stereo not given),inconclusive: -58.7%
13,Cc1ccc(S(=O)(=O)N2CCC(C(=O)OCc3ccc([N+](=O)[O-])cc3)CC2)cc1,inactive: 36.2%
14,Cc1ccc(CNC(=O)COc2ccccc2-c2ccccc2)cc1,inconclusive: -45.4%
15,CC1CCCCN1C(=O)c1ccc(COc2ccc([N+](=O)[O-])cc2)o1 (stereo not given),inconclusive: -32.7%
16,Cc1c2c(nc3nc4ccccc4n13)CCCC2=O,inconclusive: -30.4%
17,CCOC(=O)c1cccc(NC(=O)CSc2nnc(-c3ccoc3C)n2CCOC)c1,inconclusive: -56.6%
18,O=C(NC(=S)NNC(=O)c1ccccc1[N+](=O)[O-])c1ccccc1,inactive: 3.4%
19,Cc1cccc(NC(=S)NNC(=O)c2ccc3c(c2)OCO3)c1,inactive: 25.4%
20,COc1cc(/C=N/NC(=S)Nc2cccc(S(=O)(=O)N(C)C)c2)ccc1O,inactive: 98.1%
21,N#Cc1ccccc1Sc1ccccc1C(=O)OCC(=O)NC12CC3CC(CC(C3)C1)C2,inactive: -4.89%
22,COc1ccc(NC(=S)N2CCN(c3ccccn3)CC2)cc1OC,active: -115%
23,O=C(CCn1c(=O)c2ccccc2n(Cc2ccccc2)c1=O)NCc1ccc2c(c1)OCO2,inactive: -1.24%
24,Cc1cc(C(=O)N/N=C/c2cc([N+](=O)[O-])ccc2O)c2ccccc2n1,inactive: -7.74%
25,N#CCCN(Cc1ccccc1)C(=S)Nc1ccccc1,inconclusive: -60.7%

# Retrieved by structure from the list above, 2 records:
row,SMILES,"activity change (PNC), negative = inhibition"
21,N#Cc1ccccc1Sc1ccccc1C(=O)OCC(=O)NC12CC3CC(CC(C3)C1)C2,inactive: -4.89%
17,CCOC(=O)c1cccc(NC(=O)CSc2nnc(-c3ccoc3C)n2CCOC)c1,inconclusive: -56.6%
